Measurements published in PMC6784428.
No constants are given. Whether binding was seen depends on the method and setting. In cells and extracts the contact can be indirect. Some results given as binding are weak or reduced against the parent protein; the word gives no strength.

The chains behind the UniProt entries cited, without tags or fusion partners.
UniProt Q8JIY7: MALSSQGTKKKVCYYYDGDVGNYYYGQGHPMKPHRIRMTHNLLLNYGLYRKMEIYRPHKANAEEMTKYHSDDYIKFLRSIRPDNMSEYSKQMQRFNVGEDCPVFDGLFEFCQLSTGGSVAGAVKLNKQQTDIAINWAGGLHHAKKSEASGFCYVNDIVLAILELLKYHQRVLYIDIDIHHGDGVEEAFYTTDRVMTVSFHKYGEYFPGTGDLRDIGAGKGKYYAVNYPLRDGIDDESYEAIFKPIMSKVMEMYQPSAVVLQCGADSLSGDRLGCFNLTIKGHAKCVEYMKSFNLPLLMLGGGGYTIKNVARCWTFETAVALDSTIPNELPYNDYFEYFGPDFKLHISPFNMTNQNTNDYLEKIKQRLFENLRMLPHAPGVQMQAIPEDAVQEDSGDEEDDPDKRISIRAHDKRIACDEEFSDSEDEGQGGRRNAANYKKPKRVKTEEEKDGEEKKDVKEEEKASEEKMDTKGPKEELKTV

Tests used:
[1] = molecular target: T1, Octamer-binding transcription factor 4 (Oct4) (zebrafish (endogenous in retina)) (UniProt Q90270); assay: condition: only with hdac1 mRNA overexpression in the retina; co-IP; retinal lysate at 15 hpi of injured retina transfected with hdac1 mRNA (hdac1 overexpression); Co-IP of Oct4 and Hdac1, Western blot probed with anti-Hdac1 antibody
T1 sequence: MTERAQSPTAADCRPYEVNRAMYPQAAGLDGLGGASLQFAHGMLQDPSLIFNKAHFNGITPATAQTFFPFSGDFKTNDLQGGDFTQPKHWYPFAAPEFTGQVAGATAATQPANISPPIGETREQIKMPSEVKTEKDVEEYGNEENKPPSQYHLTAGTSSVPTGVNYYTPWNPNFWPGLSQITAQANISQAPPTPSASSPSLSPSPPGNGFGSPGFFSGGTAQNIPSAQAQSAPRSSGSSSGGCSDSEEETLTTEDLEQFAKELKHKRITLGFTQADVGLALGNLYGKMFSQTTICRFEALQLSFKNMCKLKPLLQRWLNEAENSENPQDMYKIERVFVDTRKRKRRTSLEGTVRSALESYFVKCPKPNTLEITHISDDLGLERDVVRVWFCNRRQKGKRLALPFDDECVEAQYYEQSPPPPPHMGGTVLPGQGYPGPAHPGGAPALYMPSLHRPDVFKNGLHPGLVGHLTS

[2] = molecular target: T1, Octamer-binding transcription factor 4 (Oct4) (zebrafish (endogenous in retina)); assay: co-IP; retinal lysate of injured adult zebrafish retina (16 hpi; also various time points post-injury and gfp mRNA-transfected control at 15 hpi); pull down with anti-Oct4 and anti-Hdac1 antibodies in separate experiments, Western blot for Hdac1 and Oct4

histone deacetylase1 (Hdac1) (from UniProt Q8JIY7 1-480)
binding [1]: no binding | binding [2]: binds
